# According to PubChem BioAssay AID2685 (National Center for Advancing Translational Sciences (NCATS), 2010):
# In all, about 320,000 compounds went through this assay and about 2,100 (0.66%) were called active. This list was built around the results that the source calls inconclusive (neither active nor inactive); the mix of calls is not that of the screen. Calls come from the whole dose curve; as a rule, active = well fitted inhibition curve with a large enough effect in the signal ratio, with a control signal flat (not every such curve was filed as active); inconclusive = small, poorly fitted or top-dose-only effect, or effect the other way, or a change in a side signal; inactive = flat fitted curve, though single readings scatter; the % refers to the signal ratio. Potencies beside an inconclusive call are fits to weak or partial responses and may not hold up.
# Experiment: qHTS Assay for Lipid Storage Modulators in Drosophila S3 Cells
# Conditions: BODIPY lipid droplet fluorescence, 18-24 h, cells fed with added oleic acid; lipid storage change, negative = inhibition: at 46.1 µM (top of the series) unless noted
# Outline: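 Drosophila S3 cells loaded with oleic acid (400 uM, as added) and compounds at several concentrations; lipid droplets imaged by 488-nm laser-scanning cytometry, 500–530 nm intensity and object ratio to cell channel. Percent activity normalized to 20 uM Triacsin C.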
# % is set by controls: 0 for no effect and ±100 for the full control effect; potency is the fitted concentration of half-maximal effect.
SMILES,"lipid storage change, negative = inhibition",Potency
CN1CCN(Cc2ccc(N)cc2)CC1,inconclusive: 1.34%,–
CCCCn1c(=O)c(C(=O)NCc2ccccc2Cl)c(O)c2ccccc21,inconclusive: -64.8%,–
Cc1ccc(-n2c(C)cc(/C=C3\C(=O)NC(=O)N(C)C3=O)c2C)cc1C,inconclusive: 18.2%,–
NC(=O)c1c(NC(=O)c2ccc(S(=O)(=O)N(CCCl)CCCl)cc2)sc2c1CCCCC2,–,"inconclusive: 3.26 µM [activator, single point]"
O=c1c(C=NCc2cccs2)c(O)n(C2CCCCC2)c(=O)n1C1CCCCC1,inconclusive: 276%,–
CN1CC=C2C(C#N)=C(N)C(C#N)(C#N)C(c3ccncc3)C2C1 (stereo unspecified),inconclusive: 41.4%,–
C#CCN1C(=O)C2(C(C#N)=C(N)OC(C)=C2C(=O)OCc2ccccc2)c2ccccc21 (stereo unspecified),inconclusive: -22%,–
Cc1cccc(-n2c(-c3ccc([N+](=O)[O-])cc3)nc3ccccc3c2=O)c1,inactive,–
Cc1nc2cc(C(F)(F)F)ccc2n1C1CCN(Cc2nnnn2Cc2ccc3c(c2)OCO3)CC1,inconclusive: 119%,–
CCOC(C(=O)OCC(O)CN(CC)CC)(c1ccccc1)c1ccccc1 (stereo unspecified),inconclusive: -18.9%,–
CCCCCCC(C)(C)c1ccc([C@@H]2C[C@H](O)CC[C@H]2CCCO)c(O)c1,inconclusive: 24.7%,–
C=CCC1(CN2CCCC2=O)C(=O)NC(=O)NC1=O,inconclusive: -57.1%,–
CCC(C(=O)N1CCC2(CC1)OCCO2)n1c2ccccc2c2nc(=O)cc(C)n21 (stereo unspecified),–,"inconclusive: 29.1 µM [falling, single point]"
CCOc1ccccc1N=C1SCCCN1C,inconclusive: -6.31%,–
CCOP(=O)(c1c(F)c(F)c(F)c(F)c1F)C(O)c1ccccc1 (stereo unspecified),–,"inconclusive: 0.58 µM [cytotoxic, full curve]"
CC(C)CCOP(N)(=O)Oc1ccccc1 (stereo unspecified),inconclusive: 46.3%,–
O=c1[nH]c(=O)n(CCc2ccc(F)cc2)c(O)c1/C=N/N1CCCCC1,inconclusive: -7.88%,–
COc1cc(C=C2C(=O)NC(=O)NC2=O)cc(OC)c1OC,inactive,–
COc1ccc(CN2CC=C(c3ccc(F)cc3)CC2)cc1Br,inconclusive: 30.6%,–
O=C(NC12CC3CC(CC(C3)C1)C2)OC1CN2CCC1CC2 (stereo unspecified),inconclusive: -9.44%,–
Clc1ccc2[nH]c3c(c2c1)CCNC3,–,"inconclusive: 29.1 µM [falling, single point]"
CC(=O)OC1C2CCCC1C(N1CCCC1)CC2 (stereo unspecified),inconclusive: -16.6%,–
Cc1ccc(CN2CCSc3ccc(C(=O)N4CCC5(CC4)OCCO5)cc32)cc1,inconclusive: -14.1%,–
COC(=O)C1=C(c2ccc(F)cc2F)C[C@@H]2CC[C@H]1N2C(=O)NC1Cc2ccccc2C1,–,"inconclusive: 0.58 µM [activator, partial curve]"
C/C(=N\Nc1ccccc1)c1c(O)[nH]c(=O)[nH]c1=O,inconclusive: 23.6%,–
Cn1cc(C(=O)OCC(=O)N2CCCC2)c2ccccc21,inconclusive: 30.7%,–

# Given tab-delimited: part of the list above
SMILES	lipid storage change, negative = inhibition	Potency
CCCCn1c(=O)c(C(=O)NCc2ccccc2Cl)c(O)c2ccccc21	inconclusive: -64.8%	–
Cc1ccc(-n2c(C)cc(/C=C3\C(=O)NC(=O)N(C)C3=O)c2C)cc1C	inconclusive: 18.2%	–
NC(=O)c1c(NC(=O)c2ccc(S(=O)(=O)N(CCCl)CCCl)cc2)sc2c1CCCCC2	–	inconclusive: 3.26 µM [activator, single point]

# (further entries)

SMILES,"lipid storage change, negative = inhibition",Potency
O=C1NC(=O)C(C(CC(=O)c2ccccc2)c2ccccc2)C(=O)N1 (stereo unspecified),inconclusive: -23.5%,–
Cc1cccnc1-n1c(CN2C(=O)c3ccccc3C2=O)nc2ccccc2c1=O,inconclusive: 55.1%,–
CNC(=O)Oc1cccc2ccccc12,inconclusive: -0.232%,–
COC(=O)C(C)Oc1cc(C)cc2oc(=O)c3c(c12)CCC3 (stereo unspecified),inconclusive: -27.3%,–
Cc1ccccc1-n1c(O)c(C(c2ccncc2)c2c(O)n(-c3ccccc3C)c(=O)[nH]c2=O)c(=O)[nH]c1=O,inconclusive: -12%,–
O=C(CN1CCCCC1)Nc1ccc(Br)cc1C(=O)c1ccccc1Cl,inconclusive: 1.14%,–
COC(=O)C1=C(c2ccc(-c3ccccc3)c(F)c2)C[C@@H]2CC[C@H]1N2C(=O)NCCOc1ccc(OC)cc1,inconclusive: 5.52%,–
COc1ccc(-n2c(-c3ccccc3)nc3ccccc3c2=O)cc1,–,"inconclusive: 0.231 µM [falling, partial curve, poor fit]"
O=S(=O)(NC1CN2CCC1CC2)c1ccc(Cl)cc1 (stereo unspecified),–,"inconclusive: 6.51 µM [falling, single point]"
CCCCn1c(O)c(C(C)=Nc2c(C)n(C)n(-c3ccccc3)c2=O)c(=O)[nH]c1=O,inconclusive: -40.4%,–
Nc1ccccc1C(=O)OCc1ccc([N+](=O)[O-])cc1,inconclusive: 16.2%,–
S=P(NC1CCCCC1)(N1CC1)N1CC1,–,"inconclusive: 0.0046 µM [falling, full curve, poor fit]"
CCOP(=O)(OCC)c1ccc(OP(=O)(c2cccc([N+](=O)[O-])c2)c2cccc([N+](=O)[O-])c2)cc1,inconclusive: -20.1%,–
C[C@]12CCC(=O)C[C@H]1CC[C@@H]1[C@@H]2CC[C@]2(C)[C@@H](O)CC[C@@H]12,inconclusive: -20.4%,–
CN1CCN2c3ccc(N)cc3CC3(C(=O)NC(=O)NC3=O)C2C1 (stereo unspecified),–,"inconclusive: 3.26 µM [falling, full curve, poor fit]"
CCn1cc(C=C2C(=O)NC(=O)NC2=O)c2ccccc21,–,"inconclusive: 29.1 µM [falling, single point]"
NNC(=O)CN1C(=O)CN=C(c2ccccc2)c2cc(Br)ccc21,inconclusive: 27.2%,–
Cc1ccc(-c2nc3ccccc3c(=O)n2-c2ncccc2C)cc1,inconclusive: -29.5%,–
CC(=O)O[C@@]12CO[C@@H]1C[C@H](O)[C@@]1(C)C(=O)[C@H](O)C3=C(C)[C@@H](OC(=O)[C@H](O)[C@@H](NC(=O)c4ccccc4)c4ccccc4)C[C@@](O)([C@@H](OC(=O)c4ccccc4)C12)C3(C)C (stereo partly specified),inconclusive: -19.8%,–
N[C@@H](Cc1c[nH]c2ccccc12)c1nnc(SCc2ccccc2F)o1,–,"inconclusive: 29.1 µM [falling, single point]"
CCC(CC)NC1CCCCC1OC (stereo unspecified),inconclusive: 2.77%,–
COc1ccc(CNC(=O)C(NC(C)=O)C(C)C)cc1OC (stereo unspecified),inconclusive: -12.4%,–
CN(C(=O)Oc1ccc(Cl)c2cccnc12)c1ccccc1,inconclusive: -1.62%,–
Cc1c(C(c2ccc(O)cc2)c2c(O)c3ccccc3oc2=O)c(=O)n(-c2ccccc2)n1C (stereo unspecified),inconclusive: 17%,–
COC(=O)C1=C(c2ccc(F)cc2OCc2ccccc2)C[C@@H]2CC[C@H]1N2C(=O)NCCN1CCOCC1,–,"inconclusive: 16.4 µM [activator, partial curve, poor fit]"
CCN(CC)C(=O)c1ccc(NC(=O)c2cc(S(=O)(=O)N3CCCCCC3)ccc2OC)cc1,–,"inconclusive: 5.17 µM [activator, partial curve]"

SMILES,"lipid storage change, negative = inhibition",Potency
CCCCOC(=O)c1ccccc1C(=O)OCCCC,–,"inconclusive: 6.51 µM [activator, single point]"
CCNC(=O)O/N=C(\C)c1sc(-c2ccccc2)nc1C,–,"inconclusive: 5.8 µM [falling, partial curve, poor fit]"
COc1ccc2c(C)c(CCC(=O)N3C[C@H]4C[C@@H](C3)c3cccc(=O)n3C4)c(=O)oc2c1,inconclusive: 13.9%,–
O=c1c2ccccc2nc(CN2CCOCC2)n1-c1ccccc1F,–,"inconclusive: 6.51 µM [activator, single point]"
CCOC(=O)c1ccc(NC(=O)N2CC3CC(C2)c2cccc(=O)n2C3)cc1 (stereo unspecified),–,"inconclusive: 0.082 µM [falling, full curve]"
COc1cccc(N(C(C)=O)C2=NCCCS2)c1,inactive,–
COc1ccc(-[n+]2c(-c3ccccc3)cc(-c3ccccc3)cc2-c2ccccc2)cc1,inconclusive: -89.8%,–
Cc1nonc1-c1nc(-c2nonc2N)n[nH]1,inconclusive: -25%,–
CC(=O)Nc1cc(C(=O)N2CCC3(CC2)OCCO3)ccc1Sc1ccc(C)cc1,inconclusive: -29.4%,–
Cc1ccc(NP(=O)(Oc2ccccc2F)Oc2ccccc2F)cc1C,–,active: 32.6 µM
CCCCn1c(C)c(C(=O)O)c2cc(OC)c3ccccc3c21,inconclusive: 103%,–
Cc1ccc(CN2CCN(CC(=O)N3CCC4(CC3)OCCO4)C2=O)cc1,inconclusive: -35.3%,–
O=C(Cn1cc(C=C2C(=O)NC(=O)NC2=O)c2ccccc21)NCC1CCCO1 (stereo unspecified),–,"inconclusive: 1.84 µM [activator, partial curve, poor fit]"
C[n+]1ccc(-c2ccncc2)cc1,–,"inconclusive: 3.66 µM [falling, full curve, poor fit]"
COc1ccc(N2C(=O)NC(=O)/C(=C\c3cn(CC(=O)N4CCOCC4)c4ccccc34)C2=O)c(OC)c1,inconclusive: -22.4%,–
CCCCn1c(=O)c(C=Nc2cc([N+](=O)[O-])ccc2OC)c(O)n(CCCCl)c1=O,inconclusive: 30%,–
COc1cccc(C2(O)CCSCC2CN(C)C)c1 (stereo unspecified),inconclusive: -10.2%,–
Cc1ccccc1CN1CCNCC1,inconclusive: -3.29%,–
CCCCCCn1c(=O)c(C(=O)Nc2cccc(C)n2)c(O)c2ccccc21,inconclusive: -4.32%,–
CCOP(=O)(Cc1ccc(C(=O)CC)o1)OCC,inconclusive: 21.2%,–
CN(C)C1(c2nnnn2-c2ccc(Cl)cc2)CCCCC1,–,"inconclusive: 0.731 µM [falling, full curve]"
O=C(c1cccnc1)C1CCCN(Cc2nc(-c3cnccn3)no2)C1 (stereo unspecified),inconclusive: 42.2%,–
CN(C)c1ccc(/C=C2\C(=O)NC(=O)N(CCc3ccc(F)cc3)C2=O)cc1,inconclusive: -18.8%,–
CN1CCN(c2nc(N)cc(=O)[nH]2)CC1,inconclusive: -13.2%,–
